According to patent publication US9988366B2, “Pesticidally active heterocyclic derivatives with sulphur containing substituents” (Syngenta Participations AG, priority 2014, dated 2018):
Some entries share one result that the patent states for a list of compounds.

System: Aedes aegypti (yellow fever mosquito)
Assay: Example B11: Aedes aegypti adult contact test in tissue culture plates
Type: in vivo
Settings: 200 ppm in ethanol; adult females; after 48 h

Row | SMILES | control of Aedes aegypti
1 | CCS(=O)(=O)c1cc(C(F)(F)F)cnc1-c1ncc(-c2cc(C(F)(F)F)ccn2)n1C [Compound P3] | at least 80%
2 | CCS(=O)(=O)c1cc(C(F)(F)F)cnc1-c1ncc(-c2ccc(C(F)(F)F)nc2)n1C [Compound P4] | at least 80%
3 | CCS(=O)(=O)c1cc(C(F)(F)F)ccc1-c1ncc(-c2ccc(C(F)(F)F)cc2)n1C [Compound P9] | at least 80%
